The nature of the test: qHTS Assay for Lipid Storage Modulators in Drosophila S3 Cells.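 On cell number change: cells counted by Cell Tracker Red CMTPX staining in the red channel.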 Particulars: BODIPY lipid droplet fluorescence, 18-24 h; for cell number change: measured here: cell count max response, cells fed with added oleic acid. The essentials:
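Laser-scanning cytometry quantifies lipid droplet accumulation (500–530 nm total intensity; droplet/cell object ratio) in oleic acid-fed (400 uM added) Drosophila S3 cells treated with a concentration series. 20 uM Triacsin C defined 100% inhibition.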
(Quantitative high-throughput screening tests each substance at several concentrations.)

Where [1] appears, read: measured here: lipid fluorescence (Fed channel) AC50, cells fed with added oleic acid.
Setting [2] is: measured here: cell number channel AC50, cells fed with added oleic acid.

The list shows a part of the results. Shown are side measurements of this screen, not its main read-out; they come without a call. The list favours compounds with an active or inconclusive main result. Potencies come from curve fits of mixed quality, noted in brackets. Where a SMILES comes first, the peptide text is derived from it. The star is where a group is joined. Boc = CC(C)(C)OC(=O)*

A word on the AC50: it is the midpoint of the concentration-response curve, whichever way the signal moves. A lower AC50 goes with activity at low concentration. Take `Cc1cccc(CCNC(=O)c2cccc3c2C(=O)N(C2CCCCC2)C3)c1`: the cell number change came to 12.2%. Further, the AC50 under setting [1] was 23.1 µM [rising, partial curve, poor fit].
Turning to `O=C(NC1CCCCC1)N1CCC(n2c(=O)[nH]c3ccccc32)CC1`, the cell number change is -14%. In addition, under setting [1], the AC50 was 0.116 µM [falling, full curve, poor fit].
Consider `Cc1cc(C)n(CCC(=O)N2CCN(S(=O)(=O)c3ccc(C)c(C)c3)CC2)n1`, for which the cell number change is -0.435%.
For `CC1CCCCC12NC(=O)N(CC(=O)N1CCN(S(=O)(=O)Cc3ccccc3)CC1)C2=O` (stereo not drawn), the cell number change is 32.9%. Besides, the AC50 under setting [2] is 29.1 µM [rising, single point]. Moreover, the AC50 under setting [1] is 29.1 µM [rising, single point].
Turning to `CC(/C=C/c1ccccc1)=N\NC(=O)c1ccc2c(c1)OCCO2`, the cell number change was found to be 19.6%. The AC50 under setting [1] is 1.84 µM [rising, partial curve].
On to `O=C(NCCc1ccc(Cl)cc1Cl)c1cc([N+](=O)[O-])c[nH]c1=O`, for which the cell number change is -10.1%. Also, the AC50 under setting [1] was 6.51 µM [falling, single point].
Turning to `COC(=O)c1c(NC(=O)CC2SCC(C(=O)OC)NC2=O)sc2c1CCCC2` (stereo not drawn), the cell number change was determined as 46.9%. Moreover, the concentration at half-maximal activity (AC50) under setting [2] was 2.06 µM [rising, full curve, poor fit].
In the case of `OC(c1ccc(Cl)cc1)c1nccc2ccccc12` (stereo not drawn), the cell number change was -0.587%.
In the case of `CCN(Cc1ccccc1)C(c1cc2cc(C)cc(C)c2[nH]c1=O)c1nnnn1CCOC` (stereo not drawn), the cell number change was -47.3%. In addition, the AC50 under setting [2] was 16.4 µM [falling, partial curve]. Further, the concentration at half-maximal activity (AC50) under setting [1] was 20.6 µM [falling, partial curve].
As for `CC1CCN(CC(=O)Nc2ccc(S(=O)(=O)N3CCC(C)CC3)cc2)CC1`, the cell number change was found to be 2.11%.
As to `O=C(O)CN1C(=O)/C(=C/c2ccc(N3CCCCC3)o2)SC1=S`, the cell number change was -95.4%. For the same compound, the half-maximal activity concentration (AC50) under setting [2] is 20.6 µM [falling, partial curve]. Further, the half-maximal activity concentration (AC50) under setting [1] is 23.1 µM [falling, partial curve].
For `Cc1ccc(N=C2NC(=O)/C(=C/C=C/c3ccco3)S2)cc1C`, the cell number change came out at 4.6%. Under setting [1], the AC50 is 0.92 µM [falling, full curve, poor fit].
Regarding `CCOC(=O)c1c(C)[nH]c(C(=O)COC(=O)C2CC2)c1C`, the cell number change was found to be 22.1%.
Turning to `CCOC(=O)CNC(=O)CSc1nc2ncc(Br)cc2[nH]1`, the cell number change came out at 12.7%. Besides, the concentration at half-maximal activity (AC50) under setting [1] was 0.092 µM [falling, single point].
On to `Cc1cc(C(=O)OCC(=O)NCc2ccc3c(c2)OCO3)c2ccccc2n1`, for which the cell number change is -25.1%.
As to `CC(C)c1ccc2oc(-c3ccc(N)cc3)nc2c1`, the cell number change is -40.1%. Also, the AC50 under setting [2] is 16.4 µM [falling, partial curve, poor fit]. Also, under setting [1], the AC50 was 32.6 µM [falling, single point].
Regarding `Cc1ccc(/C=C/C(=O)OCC(=O)NCc2ccccc2)o1`, the cell number change is -2.41%.
As to `CCOC(=O)C1=C(C)Nc2ccccc2N/C1=N\S(=O)(=O)c1cccc(Cl)c1`, the cell number change was -23.2%. In addition, the half-maximal activity concentration (AC50) under setting [1] was 4.61 µM [rising, partial curve, poor fit].
For `COc1ccc(/C=N/Nc2ccc([N+](=O)[O-])cc2)cc1O`, the cell number change was -19.2%. The AC50 under setting [1] was 29.1 µM [falling, single point].
Turning to `O=C(Nc1ccccc1)NC1CCCCC1`, the cell number change is -36.2%. In addition, the AC50 under setting [2] is 0.411 µM [falling, full curve].
For the compound `CN(CC(=O)Nc1cccc(F)c1)C(=O)c1cc([N+](=O)[O-])ccc1N1CCOCC1`, the cell number change was -8.21%. For the same compound, under setting [1], the half-maximal activity concentration (AC50) was 25.9 µM [falling, single point].
On to `O=C(Nc1ccc(Cl)cc1F)C1CC1c1ccccc1` (stereo not drawn), for which the cell number change was found to be 4.11%. Further, the AC50 under setting [1] is 0.411 µM [rising, full curve].
In the case of `CN(C)c1cccc(C(=O)N2CCC(n3nccc3NC(=O)C3CCOC3)CC2)c1` (stereo not drawn), the cell number change was found to be 1.7%. Also, under setting [1], the AC50 was 2.91 µM [rising, single point].
`COC(=O)c1nnn(CC(=O)NC(=O)Nc2c(C)cccc2C)c1C(=O)OC`: the cell number change turned out to be 17.8%. Under setting [1], the concentration at half-maximal activity (AC50) is 9.2 µM [rising, partial curve, poor fit].
Turning to `COc1ccc(CCNC(=O)CSc2ncc(C(=O)Nc3ccccc3)c(=O)n2C)cc1`, the cell number change is 4%.
On to `CCSc1nnc(NC(=O)CSc2sc3c(O)cc(=O)[nH]c3c2C#N)s1`, for which the cell number change was 21.7%. Further, under setting [1], the AC50 was 29.1 µM [rising, single point].
`CCC(c1nnnn1C(C)(C)CC)N(CCCO)Cc1cc2cccc(C)c2[nH]c1=O` (stereo not drawn): the AC50 under setting [1] is 0.206 µM [rising, full curve, poor fit].
As to `CN1CCN(C(=O)c2ccc(S(=O)(=O)Nc3ccccc3)cc2)CC1`, the cell number change was 13.5%.
On to `COc1ccc2nc(N)sc2c1`, for which the cell number change was -5.65%.
Same read-out and setting: next, `COC(=O)c1ccccc1NC(NC(=O)c1ccco1)C(=O)c1ccc(C)cc1` (stereo not drawn): 6.04%.
`COc1ccc(Br)cc1C(=O)N/N=C/c1ccc2c(c1)n(C)c(=O)n2C`: the cell number change is 9.17%. Moreover, under setting [1], the AC50 is 0.517 µM [rising, full curve, poor fit].
On to `CCOC(=O)C1(Cc2ccc(OC)cc2)CCN(C(=O)Cn2cnnn2)CC1`, for which the cell number change is -6.57%.
With `O=C1c2ccccc2C(=O)N1CC1=CCS(=O)(=O)C1`, the cell number change was found to be 35.3%. Further, the concentration at half-maximal activity (AC50) under setting [1] was 1.3 µM [falling, full curve, poor fit].
Regarding `Cc1cc(NC(=O)NC2(C(F)(F)F)Oc3ccc(Cl)cc3O2)no1` (stereo not drawn), the cell number change was -59.1%. In addition, under setting [2], the AC50 was 23.1 µM [falling, single point]. The half-maximal activity concentration (AC50) under setting [1] is 29.1 µM [falling, single point].
For `CC(C)[C@H](NC(=O)C1CCC(CNC(=O)[C@@H]2CCCN2C(=O)OC(C)(C)C)CC1)C(=O)O` (stereo partly drawn), the cell number change was -1.39%. Also, the AC50 under setting [1] was 29.1 µM [falling, single point].
`CC(C)(C)OC(=O)N1CCCC1C(=O)N1CCCC1C(=O)N1CCCC1C(=O)O` (stereo not drawn) (Boc-Pro-Pro-Pro-OH; configuration not given here): the cell number change is -191%. Under setting [2], the concentration at half-maximal activity (AC50) is 18.4 µM [falling, partial curve].
Turning to `Cc1cccc(NC(=O)CSc2nnc(NC(=O)CN3CCCCC3)s2)c1`, the cell number change is 4.95%. Also, the AC50 under setting [1] was 6.51 µM [falling, single point].
In the case of `Cc1ccc(NC(=O)c2ccc3ncsc3c2)cc1S(=O)(=O)N(C)C`, the cell number change was 14.6%. Further, under setting [1], the AC50 is 0.013 µM [rising, full curve, poor fit].
As to `CCC(C(=O)N1CCOCC1)n1nc(C)c2c(C)n(-c3ccccc3)nc2c1=O` (stereo not drawn), the cell number change is -0.295%. Also, the AC50 under setting [1] is 1.64 µM [falling, partial curve].
In the case of `N/C(Cc1ccc([N+](=O)[O-])cc1)=N\OC(=O)c1ccc(Br)cc1`, under setting [1], the concentration at half-maximal activity (AC50) is 18.4 µM [falling, partial curve].
Consider `C#CCSc1nc2sc3c(c2c(=O)n1C)CCC3`, for which the cell number change stood at 52.5%. For the same compound, the concentration at half-maximal activity (AC50) under setting [2] is 29.1 µM [rising, single point].
In the case of `Cc1ccc(S(=O)(=O)N2CCN(C(=O)COC(=O)Cc3cccc(C(F)(F)F)c3)CC2)c(C)c1`, the cell number change was -21.5%. Moreover, the half-maximal activity concentration (AC50) under setting [1] was 3.66 µM [falling, full curve].
For `O=C(N/C(=C/C=C\c1ccccc1)C(=O)N1CCOCC1)c1ccc(Br)cc1`, the cell number change stood at 6.15%. Under setting [2], the concentration at half-maximal activity (AC50) was 6.51 µM [falling, single point]. Under setting [1], the AC50 was 6.51 µM [falling, single point].
For the compound `Cc1cccc(C)c1OCC(O)Cn1c2ccccc2c2ccccc21` (stereo not drawn), the cell number change was -46.8%. Moreover, the AC50 under setting [2] is 16.4 µM [falling, partial curve, poor fit]. Moreover, under setting [1], the AC50 is 29.1 µM [falling, single point].
Consider `O=C(OCc1nnc(-c2ccccc2)o1)c1ccc(CO)cc1`, for which the cell number change is -1.97%. Also, under setting [2], the concentration at half-maximal activity (AC50) was 0.366 µM [rising, partial curve, poor fit]. Also, the AC50 under setting [1] was 2.59 µM [rising, partial curve, poor fit].
Take `Cc1ccccc1Nc1c([N+](=O)[O-])cncc1[N+](=O)[O-]`: the cell number change was -26.8%.
`COC(=O)c1cn(NC(=O)c2cccc(OC)c2)c(=O)c2ccccc12`: the cell number change was -21%. Under setting [1], the AC50 was 0.0206 µM [falling, full curve, poor fit].
On to `COc1cccc(CNC(=O)CCNC(=O)Cn2ccc3ccccc3c2=O)c1`, for which the cell number change is -40.6%. Also, the AC50 under setting [2] is 10.3 µM [falling, partial curve]. Further, the AC50 under setting [1] is 0.0146 µM [falling, full curve, poor fit].
As to `COc1cc(Cl)ccc1OCc1cc(C(=O)N2C[C@@H]3CCC[C@H]2C3)no1`, the cell number change is 13.8%.
As to `CS(=O)(=O)c1ccc(Cl)c(NC(=O)COC(=O)Cc2c[nH]c3ccccc23)c1`, the cell number change is 16.9%. The AC50 under setting [1] is 16.4 µM [rising, single point].
`O=C(COc1ccc(Cl)cc1)NCc1nnc(SCC(=O)NC2CCCCC2)o1`: the AC50 under setting [1] was 8.2 µM [falling, partial curve].
Consider `CC(=O)Nc1c(C)ccc2nsnc12`, for which the cell number change worked out at 9.73%. Further, under setting [1], the concentration at half-maximal activity (AC50) is 16.4 µM [falling, partial curve].
With `O=c1c2c3c(sc2nc2n1CCCS2)CCCC3`, the cell number change was -14.7%. For the same compound, the AC50 under setting [1] was 0.146 µM [rising, full curve, poor fit].
`Nn1c(SCC(=O)Nc2ccc(N3CCOCC3)cc2)nnc1-c1ccccc1F`: the cell number change came out at 3.23%.
`COC(=O)c1c(C(=O)OC)c(-c2ccc(C)cc2)n2c1CS(=O)(=O)C2`: the cell number change was 10.4%. In addition, the AC50 under setting [1] is 4.61 µM [rising, partial curve, poor fit].
`Cc1ccc(C(=O)NCCc2cc3ccc(C)c(C)c3[nH]c2=O)cc1[N+](=O)[O-]`: the cell number change was -2.82%. The AC50 under setting [2] was 0.82 µM [falling, full curve, poor fit].
Regarding `S=c1[nH]nc(-c2cc(-c3ccccn3)nc3ccccc23)o1`, the concentration at half-maximal activity (AC50) runs as follows: under setting [2], 1.84 µM [rising, partial curve]; under setting [1], 0.82 µM [rising, partial curve].
As for `Cc1cc(O)c(C=Nc2ccc(Cl)cn2)c(=O)o1`, the cell number change came to 81.8%. For the same compound, the half-maximal activity concentration (AC50) under setting [2] was 29.1 µM [rising, single point].
As for `CN(C)C(=O)CSc1ccccc1C(=O)OCC(=O)NC1CC1`, the cell number change worked out at 24.9%. Also, under setting [1], the concentration at half-maximal activity (AC50) is 9.2 µM [rising, partial curve].
Take `CS(=O)(=O)N1CCN(c2ccc(NC(=O)c3ccccc3)cc2)CC1`: the cell number change was -15.3%. Under setting [1], the AC50 is 0.00461 µM [falling, full curve, poor fit].
As to `COc1ccc(OCCCC(=O)Nc2cc(S(=O)(=O)N3CCCCC3)ccc2C)cc1`, the cell number change was -15.5%.

(Values after PubChem BioAssay AID2685 (National Center for Advancing Translational Sciences (NCATS), 2010).)
